Laboratory results: article PMC6403222, “Identification of a novel class of RIP1/RIP3 dual inhibitors that impede cell death and inflammation in mouse abdominal aortic aneurysm models” (Cell Death & Disease, 2019)
These are yes or no findings as the source states them, for the method shown. Binding seen in cells or lysates may run through a third protein. Some entries that bind do so weakly or less than the wild type.

Key:
[1] = target: T1, Receptor interacting protein kinase-3 (mouse (endogenous in MOVAS and L929)), Q9QZL0; test: proximity ligation; in situ PLA (Duolink) on fixed, permeabilised MOVAS (30 ng/ml TNFα plus 60 μM zVAD, 3 h) and L929 cells after necroptosis induction; details: remark: other sources report otherwise
[2] = target: T1, Receptor interacting protein kinase-3 …; test: co-IP; MOVAS (30 ng/ml TNFα plus 60 μM zVAD, 3 h) and L929 cells after necroptosis induction; lysate in Pierce IP Lysis Buffer; anti-RIP3 or isotype control on Protein A magnetic beads, 1 h at room temperature; immunoblot; details: remark: other sources report otherwise

B1: Receptor interacting protein kinase-1, Q60855 1-656 (protein)
chain: MQPDMSLDNIKMASSDLLEKTDLDSGGFGKVSLCYHRSHGFVILKKVYTGPNRAEYNEVLLEEGKMMHRLRHSRVVKLLGIIIEEGNYSLVMEYMEKGNLMHVLKTQIDVPLSLKGRIIVEAIEGMCYLHDKGVIHKDLKPENILVDRDFHIKIADLGVASFKTWSKLTKEKDNKQKEVSSTTKKNNGGTLYYMAPEHLNDINAKPTEKSDVYSFGIVLWAIFAKKEPYENVICTEQFVICIKSGNRPNVEEILEYCPREIISLMERCWQAIPEDRPTFLGIEEEFRPFYLSHFEEYVEEDVASLKKEYPDQSPVLQRMFSLQHDCVPLPPSRSNSEQPGSLHSSQGLQMGPVEESWFSSSPEYPQDENDRSVQAKLQEEASYHAFGIFAEKQTKPQPRQNEAYNREEERKRRVSHDPFAQQRARENIKSAGARGHSDPSTTSRGIAVQQLSWPATQTVWNNGLYNQHGFGTTGTGVWYPPNLSQMYSTYKTPVPETNIPGSTPTMPYFSGPVADDLIKYTIFNSSGIQIGNHNYMDVGLNSQPPNNTCKEESTSRHQAIFDNTTSLTDEHLNPIRENLGRQWKNCARKLGFTESQIDEIDHDYERDGLKEKVYQMLQKWLMREGTKGATVGKLAQALHQCCRIDLLNHLIRASQS
In the case of B1, the binding [1] is reported as “binds” and the binding [2] is reported as “binds”.
